{"source": "PubChem BioAssay AID1671195 (Yale University, 2021)", "aim": "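Genes whose knockdown alters LDL uptake in liver cancer cells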 (primary screen)", "cell system": "human Huh7 hepatoma cells", "knock-down reagent": "siRNA pool against human genes, 18 nM", "timing": "about 2 to 2.5 days of knockdown, then 8 h LDL uptake", "treatment": "DiI-labelled LDL at 30 µg/ml for 8 h, in lipoprotein-deficient serum medium", "detection": "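Fluorescent LDL signal imaged in cells, scaled to the plate median, robust z-score for each replicate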", "scale": "robust z-score: higher = more LDL uptake after knockdown", "hit rule": "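Active when two or more replicates show a robust z-score above 2 or below -2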", "note": "Shown is one part, drawn at random, of about 22,000 reagents. About 1,510 of them (6.9%) count as active. 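Active includes knockdowns raising or lowering LDL uptake; positive z-scores mean more uptake, negative mean less.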"}
{"Target gene": "IMPG1 (interphotoreceptor matrix proteoglycan 1)", "robust z-score, replicate 1": 0.263, "robust z-score, replicate 2": 0.265, "robust z-score, replicate 3": 0.494, "activity call": "inactive"}
{"Target gene": "IQCE (IQ motif containing E)", "robust z-score, replicate 1": 1.18, "robust z-score, replicate 2": 0.11, "robust z-score, replicate 3": 1.07, "activity call": "inactive"}
{"Target gene": "PLPBP (pyridoxal phosphate binding protein)", "robust z-score, replicate 1": 0.457, "robust z-score, replicate 2": 0.806, "robust z-score, replicate 3": 0.456, "activity call": "inactive"}
{"Target gene": "PKD1", "robust z-score, replicate 1": -0.12, "robust z-score, replicate 2": 0.606, "robust z-score, replicate 3": -0.174, "activity call": "inactive"}
{"Target gene": "DOLPP1 (dolichyldiphosphatase 1)", "robust z-score, replicate 1": 0.235, "robust z-score, replicate 2": 0.0386, "robust z-score, replicate 3": 0.345, "activity call": "inactive"}
{"Target gene": "LOC399920 (retired record)", "robust z-score, replicate 1": -0.937, "robust z-score, replicate 2": -1.52, "robust z-score, replicate 3": -1.74, "activity call": "inactive"}
{"Target gene": "NFKBIE (NFKB inhibitor epsilon)", "robust z-score, replicate 1": -1.48, "robust z-score, replicate 2": -1.96, "robust z-score, replicate 3": -2.25, "activity call": "active"}
{"Target gene": "KANK1 (KN motif and ankyrin repeat domains 1)", "robust z-score, replicate 1": 0.919, "robust z-score, replicate 2": -0.316, "robust z-score, replicate 3": 0.587, "activity call": "inactive"}
{"Target gene": "CCDC149 (coiled-coil domain containing 149)", "robust z-score, replicate 1": 0.0773, "robust z-score, replicate 2": 0.184, "robust z-score, replicate 3": 0.276, "activity call": "inactive"}
{"Target gene": "MTHFR (methylenetetrahydrofolate reductase)", "robust z-score, replicate 1": -1.19, "robust z-score, replicate 2": -0.806, "robust z-score, replicate 3": -1.3, "activity call": "inactive"}
{"Target gene": "CENPE (centromere protein E)", "robust z-score, replicate 1": 2.62, "robust z-score, replicate 2": 1.4, "robust z-score, replicate 3": 3.9, "activity call": "inactive"}
{"Target gene": "SMCHD1", "robust z-score, replicate 1": -1.44, "robust z-score, replicate 2": 0.706, "robust z-score, replicate 3": -1.43, "activity call": "inactive"}
{"Target gene": "LGI4 (leucine rich repeat LGI family member 4)", "robust z-score, replicate 1": 0.829, "robust z-score, replicate 2": 0.949, "robust z-score, replicate 3": 0.644, "activity call": "inactive"}
{"Target gene": "FAABTP (fatty acid amide binding transmembrane protein)", "robust z-score, replicate 1": 1.6, "robust z-score, replicate 2": 2.8, "robust z-score, replicate 3": 1.75, "activity call": "inactive"}
{"Target gene": "CCL27 (C-C motif chemokine ligand 27)", "robust z-score, replicate 1": 1.07, "robust z-score, replicate 2": 0.845, "robust z-score, replicate 3": 0.969, "activity call": "inactive"}
{"Target gene": "METTL14", "robust z-score, replicate 1": -0.51, "robust z-score, replicate 2": 0.266, "robust z-score, replicate 3": 1.83, "activity call": "inactive"}

Not a retest: an excerpt of the list.
{"Target gene": "IQCE (IQ motif containing E)", "robust z-score, replicate 1": 1.18, "robust z-score, replicate 2": 0.11, "robust z-score, replicate 3": 1.07, "activity call": "inactive"}
{"Target gene": "PLPBP (pyridoxal phosphate binding protein)", "robust z-score, replicate 1": 0.457, "robust z-score, replicate 2": 0.806, "robust z-score, replicate 3": 0.456, "activity call": "inactive"}
